The target in the test is T1, 3 × FLAG-labeled lanthionine synthetase C-like protein 2 (LANCL2) (UniProt Q9NS86).
T1 sequence: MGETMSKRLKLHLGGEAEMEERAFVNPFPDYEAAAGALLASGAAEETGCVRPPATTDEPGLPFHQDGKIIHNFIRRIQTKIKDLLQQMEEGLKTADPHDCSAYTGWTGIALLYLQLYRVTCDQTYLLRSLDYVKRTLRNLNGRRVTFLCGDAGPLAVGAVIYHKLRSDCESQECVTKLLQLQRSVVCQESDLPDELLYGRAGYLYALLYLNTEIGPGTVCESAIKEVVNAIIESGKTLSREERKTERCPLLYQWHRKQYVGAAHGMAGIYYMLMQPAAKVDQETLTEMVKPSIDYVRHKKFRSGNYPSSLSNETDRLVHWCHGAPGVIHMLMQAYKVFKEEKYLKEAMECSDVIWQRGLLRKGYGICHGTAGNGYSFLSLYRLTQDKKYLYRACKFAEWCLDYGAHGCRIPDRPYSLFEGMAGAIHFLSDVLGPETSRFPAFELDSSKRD
Put plainly: co-IP; 3xFLAG-LANCL2 captured from infected PC9 cells on anti-FLAG M2 Affinity Gel beads, washed with lysis buffer, immunoblotting of the immunoprecipitates.

Chains of the proteins cited; added tags and fusions are not shown.
UniProt P21333: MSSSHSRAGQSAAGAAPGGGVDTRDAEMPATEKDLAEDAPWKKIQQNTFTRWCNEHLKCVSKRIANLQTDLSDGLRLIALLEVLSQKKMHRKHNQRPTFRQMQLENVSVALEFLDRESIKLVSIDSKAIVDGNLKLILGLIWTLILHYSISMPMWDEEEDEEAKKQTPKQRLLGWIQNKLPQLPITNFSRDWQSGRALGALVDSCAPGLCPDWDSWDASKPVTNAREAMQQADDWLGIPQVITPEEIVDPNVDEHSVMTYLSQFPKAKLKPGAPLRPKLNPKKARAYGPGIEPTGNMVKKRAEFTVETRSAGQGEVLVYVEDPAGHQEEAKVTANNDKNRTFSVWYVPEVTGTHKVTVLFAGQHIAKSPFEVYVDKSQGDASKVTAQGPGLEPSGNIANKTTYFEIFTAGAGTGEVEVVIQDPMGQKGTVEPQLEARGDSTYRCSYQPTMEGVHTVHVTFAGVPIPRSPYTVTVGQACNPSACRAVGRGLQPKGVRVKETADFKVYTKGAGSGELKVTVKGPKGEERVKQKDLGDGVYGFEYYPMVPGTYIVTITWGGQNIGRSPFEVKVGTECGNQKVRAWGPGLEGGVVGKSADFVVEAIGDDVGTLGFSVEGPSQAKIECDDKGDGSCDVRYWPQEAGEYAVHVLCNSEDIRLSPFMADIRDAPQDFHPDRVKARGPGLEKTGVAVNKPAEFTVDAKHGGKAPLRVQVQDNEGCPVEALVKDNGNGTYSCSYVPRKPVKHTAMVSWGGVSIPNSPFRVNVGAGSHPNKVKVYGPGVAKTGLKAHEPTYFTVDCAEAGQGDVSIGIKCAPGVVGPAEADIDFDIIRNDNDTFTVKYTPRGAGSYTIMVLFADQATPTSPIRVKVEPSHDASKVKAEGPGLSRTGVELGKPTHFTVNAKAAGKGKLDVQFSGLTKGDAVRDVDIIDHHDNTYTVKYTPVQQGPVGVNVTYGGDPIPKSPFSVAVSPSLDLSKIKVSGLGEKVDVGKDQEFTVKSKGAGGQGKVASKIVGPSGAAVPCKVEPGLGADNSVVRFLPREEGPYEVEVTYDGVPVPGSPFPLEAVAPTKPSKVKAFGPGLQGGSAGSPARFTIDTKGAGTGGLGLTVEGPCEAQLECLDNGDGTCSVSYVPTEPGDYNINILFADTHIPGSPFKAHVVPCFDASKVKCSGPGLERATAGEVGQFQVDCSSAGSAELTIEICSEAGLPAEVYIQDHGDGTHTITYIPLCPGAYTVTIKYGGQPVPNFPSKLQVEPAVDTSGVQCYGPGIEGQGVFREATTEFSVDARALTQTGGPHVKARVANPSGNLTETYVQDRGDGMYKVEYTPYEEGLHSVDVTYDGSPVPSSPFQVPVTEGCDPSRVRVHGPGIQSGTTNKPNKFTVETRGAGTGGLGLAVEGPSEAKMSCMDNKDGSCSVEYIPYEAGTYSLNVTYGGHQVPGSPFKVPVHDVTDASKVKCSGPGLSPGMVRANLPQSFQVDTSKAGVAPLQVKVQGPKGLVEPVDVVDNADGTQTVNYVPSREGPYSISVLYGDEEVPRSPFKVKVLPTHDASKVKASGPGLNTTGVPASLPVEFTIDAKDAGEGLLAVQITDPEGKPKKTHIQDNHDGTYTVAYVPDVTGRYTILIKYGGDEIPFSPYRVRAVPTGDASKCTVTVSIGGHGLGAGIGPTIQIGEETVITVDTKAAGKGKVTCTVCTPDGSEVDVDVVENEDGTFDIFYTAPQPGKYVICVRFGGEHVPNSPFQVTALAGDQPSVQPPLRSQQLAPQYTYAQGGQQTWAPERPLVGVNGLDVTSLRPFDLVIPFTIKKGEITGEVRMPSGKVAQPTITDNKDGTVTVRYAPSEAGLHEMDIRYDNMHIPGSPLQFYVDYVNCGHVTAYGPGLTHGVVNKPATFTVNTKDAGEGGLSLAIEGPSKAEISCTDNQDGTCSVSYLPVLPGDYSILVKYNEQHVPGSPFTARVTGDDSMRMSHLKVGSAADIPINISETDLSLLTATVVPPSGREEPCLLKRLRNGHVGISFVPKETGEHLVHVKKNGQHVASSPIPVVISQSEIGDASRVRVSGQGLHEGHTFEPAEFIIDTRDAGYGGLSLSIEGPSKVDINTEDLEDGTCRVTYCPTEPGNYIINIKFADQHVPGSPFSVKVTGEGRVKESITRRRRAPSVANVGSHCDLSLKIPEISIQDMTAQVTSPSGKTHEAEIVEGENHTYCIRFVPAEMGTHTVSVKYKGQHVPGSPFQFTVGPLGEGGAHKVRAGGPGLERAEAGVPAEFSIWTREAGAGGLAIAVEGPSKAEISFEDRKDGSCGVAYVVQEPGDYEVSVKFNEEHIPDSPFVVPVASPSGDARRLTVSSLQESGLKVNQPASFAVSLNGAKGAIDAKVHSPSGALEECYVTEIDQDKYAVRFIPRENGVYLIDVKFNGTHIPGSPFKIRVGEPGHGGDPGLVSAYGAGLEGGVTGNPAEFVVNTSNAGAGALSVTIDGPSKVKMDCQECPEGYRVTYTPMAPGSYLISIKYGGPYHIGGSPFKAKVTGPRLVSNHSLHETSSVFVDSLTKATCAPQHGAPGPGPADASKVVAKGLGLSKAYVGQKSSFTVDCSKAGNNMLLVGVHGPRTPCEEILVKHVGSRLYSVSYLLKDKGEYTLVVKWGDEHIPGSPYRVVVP

Results are given in words; binding and its absence hold for the method and conditions named. Binding seen in cells or lysates may run through a third protein. Some binding calls cover weakened binding; strength is not graded here. Sequences can lack the tags named with a protein.

Consider “Filamin A (FLNA) (from UniProt P21333 1-2647)”, for which the binding result is listed as “binds”.

B1: glutathione S-transferase Mu 3 (GSTM3) (protein, UniProt P21266 1-225)
chain: MSCESSMVLGYWDIRGLAHAIRLLLEFTDTSYEEKRYTCGEAPDYDRSQWLDVKFKLDLDFPNLPYLLDGKNKITQSNAILRYIARKHNMCGETEEEKIRVDIIENQVMDFRTQLIRLCYSSDHEKLKPQYLEELPGQLKQFSMFLGKFSWFAGEKLTFVDFLTYDILDQNRIFDPKCLDEFPNLKAFMCRFEALEKIAAYLQSDQFCKMPINNKMAQWGNKPVC
In the case of B1, the binding result is reported as “binds”.

These data come from article PMC7876134.
